The text below walks through data of PMC12748351, “The TDG protein environment connects active DNA demethylation with chromatin and RNA biology”.

Amino acid sequences for entries named in this document (tags omitted). A change or cut given only in a name is not applied to a line headed by its entry.
UniProt P56581: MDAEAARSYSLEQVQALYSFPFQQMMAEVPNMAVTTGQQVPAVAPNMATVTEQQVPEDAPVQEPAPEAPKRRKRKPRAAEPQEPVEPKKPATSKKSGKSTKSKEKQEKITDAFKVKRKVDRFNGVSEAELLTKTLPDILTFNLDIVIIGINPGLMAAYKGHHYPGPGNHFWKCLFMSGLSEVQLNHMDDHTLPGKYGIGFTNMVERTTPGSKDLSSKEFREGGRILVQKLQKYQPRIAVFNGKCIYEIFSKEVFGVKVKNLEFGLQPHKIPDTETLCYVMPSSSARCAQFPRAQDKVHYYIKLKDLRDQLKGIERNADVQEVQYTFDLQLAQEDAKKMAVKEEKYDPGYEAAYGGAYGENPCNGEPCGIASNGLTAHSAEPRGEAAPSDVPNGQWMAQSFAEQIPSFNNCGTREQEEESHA

The exact form of at least one protein or probe is not confirmed.

In this series the target is TDG (recombinant murine TDG) (Mus musculus) (UniProt P56581). The series can be described thus: competition with a labelled probe. The following applies: Results: higher affinity than lncRNA, Methods call it non-competitor homoduplex; BER buffer: 50 mM HEPES pH 8.0, 70 mM KCl, 0.5 mg/mL BSA, 7 mM MgCl2, 1 mM DTT, RNase inhibitor; RT, 15 min; recombinant protein; letters put together from the description.

With “TAGACATTGCCCTCGAGGTACCATGGATCCGATGTCGACCTCAAACCTAGACGAATTCCG (double strand) [60 bp homoduplex DNA (G·C, unlabeled competitor)]”, the binding result was “binds”.
